Results published in paper PMC4267653, “DNA cleavage by CgII and NgoAVII requires interaction between N- and R-proteins and extensive nucleotide hydrolysis” (Nucleic Acids Research, 2014).

Assays:
Assay in all cases: EMSA
[1] = system: N.CglI (Corynebacterium glutamicum ATCC 13032); details: no metal, 0.1 mM EDTA, EMSA: 1 nM 33P-DNA, 1-500 nM protein monomer, 40 mM Tris-acetate pH 8.3 (25°C), 0.1 mM EDTA (NgoAVII: 5 mM Ca-acetate instead), 0.1 mg/ml BSA, 10% glycerol, 15 min, recombinant protein, label: 33P
[2] = system: R.CglI-B3 (Corynebacterium glutamicum ATCC 13032); details: no metal, 0.1 mM EDTA; EMSA: 1 nM 33P-DNA, 1-500 nM protein monomer, 40 mM Tris-acetate pH 8.3 (25°C), 0.1 mM EDTA (NgoAVII: 5 mM Ca-acetate instead), 0.1 mg/ml BSA, 10% glycerol, 15 min; recombinant protein; label: 33P
[3] = system: R.CglI (Corynebacterium glutamicum ATCC 13032); details: no metal, 0.1 mM EDTA, little or no binding; EMSA: 1 nM 33P-DNA, 1-500 nM protein monomer, 40 mM Tris-acetate pH 8.3 (25°C), 0.1 mM EDTA (NgoAVII: 5 mM Ca-acetate instead), 0.1 mg/ml BSA, 10% glycerol, 15 min; recombinant protein; label: 33P

Sequence | binding result [1] | binding result [2] | binding result ([1]; little or no binding) | binding result [3]
TACAATCGATAATAGCCGCCGTGCGAGCCCATT (double strand) [33 bp cognate duplex] | no binding | binds | – | –
TACAATCGATAATACCAGGCGTGCGAGCCCATT (double strand) [33 bp non-cognate duplex] | – | – | binds more weakly | binds more weakly

The exact form of at least one protein or probe is not confirmed. For some of these results: A negative result means that nothing was seen under these conditions. For some of these results: Weaker means in comparison with the reference protein, sequence or condition of that experiment. For some of these results: At least one verdict rests on a figure or table, not on a statement of the authors.
